Laboratory results from the supplement of paper PMC10849652.
This is one part of the list.

The chains behind the UniProt entries cited, without tags or fusion partners. Where a name states a change or a piece, a line headed by the entry shows the natural chain unless it says otherwise.
UniProt Q93050, whole entry, looked up: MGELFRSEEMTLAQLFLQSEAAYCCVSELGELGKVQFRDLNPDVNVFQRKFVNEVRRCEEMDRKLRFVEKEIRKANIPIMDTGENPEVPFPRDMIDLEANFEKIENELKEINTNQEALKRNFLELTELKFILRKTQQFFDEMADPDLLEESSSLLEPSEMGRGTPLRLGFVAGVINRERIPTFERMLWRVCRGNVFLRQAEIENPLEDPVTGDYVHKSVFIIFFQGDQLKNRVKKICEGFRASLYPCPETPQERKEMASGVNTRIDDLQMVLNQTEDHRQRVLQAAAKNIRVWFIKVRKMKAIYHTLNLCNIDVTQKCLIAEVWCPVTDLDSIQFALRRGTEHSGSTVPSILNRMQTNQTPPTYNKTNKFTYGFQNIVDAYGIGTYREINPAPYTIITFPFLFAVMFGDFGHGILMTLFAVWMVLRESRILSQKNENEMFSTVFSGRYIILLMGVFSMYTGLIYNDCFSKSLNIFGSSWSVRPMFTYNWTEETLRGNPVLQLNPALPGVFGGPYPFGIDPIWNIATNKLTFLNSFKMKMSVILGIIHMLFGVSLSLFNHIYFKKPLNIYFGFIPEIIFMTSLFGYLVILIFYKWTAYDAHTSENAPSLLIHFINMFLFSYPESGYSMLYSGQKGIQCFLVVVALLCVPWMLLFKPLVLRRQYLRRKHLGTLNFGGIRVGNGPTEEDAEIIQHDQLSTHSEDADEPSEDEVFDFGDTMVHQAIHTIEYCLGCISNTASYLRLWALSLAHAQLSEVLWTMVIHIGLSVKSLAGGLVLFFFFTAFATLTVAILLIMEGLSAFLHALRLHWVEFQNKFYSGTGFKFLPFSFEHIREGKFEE
UniProt Q8NB49: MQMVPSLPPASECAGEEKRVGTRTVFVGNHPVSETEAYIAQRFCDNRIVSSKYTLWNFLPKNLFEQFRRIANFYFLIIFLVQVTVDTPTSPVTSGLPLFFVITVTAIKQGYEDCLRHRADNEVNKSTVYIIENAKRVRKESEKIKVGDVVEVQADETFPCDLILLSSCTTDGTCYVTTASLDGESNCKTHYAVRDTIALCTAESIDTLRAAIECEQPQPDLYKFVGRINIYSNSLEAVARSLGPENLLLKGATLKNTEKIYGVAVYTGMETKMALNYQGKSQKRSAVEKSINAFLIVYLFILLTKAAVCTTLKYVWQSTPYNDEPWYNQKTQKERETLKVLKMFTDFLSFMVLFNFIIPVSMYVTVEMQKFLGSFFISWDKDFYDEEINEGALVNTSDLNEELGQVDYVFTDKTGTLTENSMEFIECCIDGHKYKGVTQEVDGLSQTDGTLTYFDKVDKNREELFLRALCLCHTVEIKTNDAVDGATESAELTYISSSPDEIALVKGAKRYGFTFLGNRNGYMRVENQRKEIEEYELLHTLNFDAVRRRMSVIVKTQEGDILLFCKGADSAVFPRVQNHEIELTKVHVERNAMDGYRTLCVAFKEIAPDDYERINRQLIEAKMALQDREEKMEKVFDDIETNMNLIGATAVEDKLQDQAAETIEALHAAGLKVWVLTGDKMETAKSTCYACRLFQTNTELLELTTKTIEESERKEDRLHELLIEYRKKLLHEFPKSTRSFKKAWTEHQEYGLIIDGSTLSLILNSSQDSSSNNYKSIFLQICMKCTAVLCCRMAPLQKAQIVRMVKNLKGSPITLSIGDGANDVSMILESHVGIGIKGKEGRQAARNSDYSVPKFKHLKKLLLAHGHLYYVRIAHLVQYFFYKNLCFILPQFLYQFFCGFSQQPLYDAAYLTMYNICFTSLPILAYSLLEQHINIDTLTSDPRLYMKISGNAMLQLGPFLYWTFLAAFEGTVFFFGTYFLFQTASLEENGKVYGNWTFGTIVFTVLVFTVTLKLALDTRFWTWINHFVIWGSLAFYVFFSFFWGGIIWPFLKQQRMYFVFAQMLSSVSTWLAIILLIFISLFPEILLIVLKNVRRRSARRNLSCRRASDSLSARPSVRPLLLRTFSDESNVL
UniProt P27449, whole entry, looked up: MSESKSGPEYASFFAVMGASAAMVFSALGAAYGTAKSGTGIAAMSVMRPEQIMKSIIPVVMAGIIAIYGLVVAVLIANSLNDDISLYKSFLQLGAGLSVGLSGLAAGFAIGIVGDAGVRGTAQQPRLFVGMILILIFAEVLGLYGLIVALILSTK
UniProt Q5T9A4: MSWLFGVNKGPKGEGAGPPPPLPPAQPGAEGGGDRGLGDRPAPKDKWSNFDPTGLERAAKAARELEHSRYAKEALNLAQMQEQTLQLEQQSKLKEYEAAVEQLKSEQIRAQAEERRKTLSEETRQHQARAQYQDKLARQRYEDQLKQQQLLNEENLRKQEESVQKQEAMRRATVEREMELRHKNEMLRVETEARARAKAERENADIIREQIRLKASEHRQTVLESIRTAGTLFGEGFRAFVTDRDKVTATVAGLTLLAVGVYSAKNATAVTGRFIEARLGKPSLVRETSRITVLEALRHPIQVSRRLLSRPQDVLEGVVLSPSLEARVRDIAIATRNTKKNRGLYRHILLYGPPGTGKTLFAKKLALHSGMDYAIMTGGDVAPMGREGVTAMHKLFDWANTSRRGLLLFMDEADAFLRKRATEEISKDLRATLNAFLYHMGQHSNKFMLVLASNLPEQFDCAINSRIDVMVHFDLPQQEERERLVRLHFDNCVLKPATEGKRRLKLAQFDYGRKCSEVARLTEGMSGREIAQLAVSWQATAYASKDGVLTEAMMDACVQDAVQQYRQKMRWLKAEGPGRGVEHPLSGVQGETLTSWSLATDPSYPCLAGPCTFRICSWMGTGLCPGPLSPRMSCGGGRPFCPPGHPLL
UniProt O95260: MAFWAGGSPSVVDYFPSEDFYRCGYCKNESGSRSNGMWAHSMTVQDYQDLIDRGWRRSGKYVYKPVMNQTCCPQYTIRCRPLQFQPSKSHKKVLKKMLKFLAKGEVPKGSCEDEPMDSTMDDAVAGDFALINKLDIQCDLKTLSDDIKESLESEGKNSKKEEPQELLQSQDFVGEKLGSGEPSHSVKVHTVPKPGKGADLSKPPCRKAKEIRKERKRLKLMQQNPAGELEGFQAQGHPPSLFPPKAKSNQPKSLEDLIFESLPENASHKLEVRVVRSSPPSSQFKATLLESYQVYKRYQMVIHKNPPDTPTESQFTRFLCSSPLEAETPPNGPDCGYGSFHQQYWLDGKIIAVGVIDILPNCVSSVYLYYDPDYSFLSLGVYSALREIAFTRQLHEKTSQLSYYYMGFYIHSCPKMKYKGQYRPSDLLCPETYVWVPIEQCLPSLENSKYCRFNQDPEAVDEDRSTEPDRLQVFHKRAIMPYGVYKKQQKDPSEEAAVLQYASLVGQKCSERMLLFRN
UniProt P38606, whole entry, looked up: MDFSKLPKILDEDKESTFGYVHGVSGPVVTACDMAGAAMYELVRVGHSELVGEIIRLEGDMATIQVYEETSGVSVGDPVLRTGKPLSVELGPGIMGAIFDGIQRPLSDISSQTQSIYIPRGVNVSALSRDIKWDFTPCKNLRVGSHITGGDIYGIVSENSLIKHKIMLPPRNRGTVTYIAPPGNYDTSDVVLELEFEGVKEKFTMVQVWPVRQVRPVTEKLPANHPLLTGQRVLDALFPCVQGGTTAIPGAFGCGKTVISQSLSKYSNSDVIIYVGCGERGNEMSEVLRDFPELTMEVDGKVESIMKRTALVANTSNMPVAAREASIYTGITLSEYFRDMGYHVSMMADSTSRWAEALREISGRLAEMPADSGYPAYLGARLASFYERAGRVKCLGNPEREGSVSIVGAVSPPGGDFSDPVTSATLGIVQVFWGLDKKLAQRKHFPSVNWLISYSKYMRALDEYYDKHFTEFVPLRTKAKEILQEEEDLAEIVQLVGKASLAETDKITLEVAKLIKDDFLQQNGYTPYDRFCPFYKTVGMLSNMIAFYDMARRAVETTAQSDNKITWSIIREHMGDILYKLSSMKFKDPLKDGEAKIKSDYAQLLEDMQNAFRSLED
UniProt Q15904, whole entry, looked up: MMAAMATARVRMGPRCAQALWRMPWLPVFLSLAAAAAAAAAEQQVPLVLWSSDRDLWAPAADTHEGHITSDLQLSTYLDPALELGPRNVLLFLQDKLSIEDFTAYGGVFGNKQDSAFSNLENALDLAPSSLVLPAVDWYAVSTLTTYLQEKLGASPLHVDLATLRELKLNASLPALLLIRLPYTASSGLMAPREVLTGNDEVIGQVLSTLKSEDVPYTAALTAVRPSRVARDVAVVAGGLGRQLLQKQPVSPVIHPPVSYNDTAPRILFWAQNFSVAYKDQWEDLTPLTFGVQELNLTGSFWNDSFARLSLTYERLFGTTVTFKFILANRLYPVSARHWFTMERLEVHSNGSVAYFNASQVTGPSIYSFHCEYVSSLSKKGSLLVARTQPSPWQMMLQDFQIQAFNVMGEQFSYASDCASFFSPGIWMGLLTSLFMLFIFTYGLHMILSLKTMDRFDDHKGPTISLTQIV
UniProt P18859: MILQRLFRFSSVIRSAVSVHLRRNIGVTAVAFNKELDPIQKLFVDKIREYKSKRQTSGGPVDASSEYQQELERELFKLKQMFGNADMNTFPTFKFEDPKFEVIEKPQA
UniProt O75882: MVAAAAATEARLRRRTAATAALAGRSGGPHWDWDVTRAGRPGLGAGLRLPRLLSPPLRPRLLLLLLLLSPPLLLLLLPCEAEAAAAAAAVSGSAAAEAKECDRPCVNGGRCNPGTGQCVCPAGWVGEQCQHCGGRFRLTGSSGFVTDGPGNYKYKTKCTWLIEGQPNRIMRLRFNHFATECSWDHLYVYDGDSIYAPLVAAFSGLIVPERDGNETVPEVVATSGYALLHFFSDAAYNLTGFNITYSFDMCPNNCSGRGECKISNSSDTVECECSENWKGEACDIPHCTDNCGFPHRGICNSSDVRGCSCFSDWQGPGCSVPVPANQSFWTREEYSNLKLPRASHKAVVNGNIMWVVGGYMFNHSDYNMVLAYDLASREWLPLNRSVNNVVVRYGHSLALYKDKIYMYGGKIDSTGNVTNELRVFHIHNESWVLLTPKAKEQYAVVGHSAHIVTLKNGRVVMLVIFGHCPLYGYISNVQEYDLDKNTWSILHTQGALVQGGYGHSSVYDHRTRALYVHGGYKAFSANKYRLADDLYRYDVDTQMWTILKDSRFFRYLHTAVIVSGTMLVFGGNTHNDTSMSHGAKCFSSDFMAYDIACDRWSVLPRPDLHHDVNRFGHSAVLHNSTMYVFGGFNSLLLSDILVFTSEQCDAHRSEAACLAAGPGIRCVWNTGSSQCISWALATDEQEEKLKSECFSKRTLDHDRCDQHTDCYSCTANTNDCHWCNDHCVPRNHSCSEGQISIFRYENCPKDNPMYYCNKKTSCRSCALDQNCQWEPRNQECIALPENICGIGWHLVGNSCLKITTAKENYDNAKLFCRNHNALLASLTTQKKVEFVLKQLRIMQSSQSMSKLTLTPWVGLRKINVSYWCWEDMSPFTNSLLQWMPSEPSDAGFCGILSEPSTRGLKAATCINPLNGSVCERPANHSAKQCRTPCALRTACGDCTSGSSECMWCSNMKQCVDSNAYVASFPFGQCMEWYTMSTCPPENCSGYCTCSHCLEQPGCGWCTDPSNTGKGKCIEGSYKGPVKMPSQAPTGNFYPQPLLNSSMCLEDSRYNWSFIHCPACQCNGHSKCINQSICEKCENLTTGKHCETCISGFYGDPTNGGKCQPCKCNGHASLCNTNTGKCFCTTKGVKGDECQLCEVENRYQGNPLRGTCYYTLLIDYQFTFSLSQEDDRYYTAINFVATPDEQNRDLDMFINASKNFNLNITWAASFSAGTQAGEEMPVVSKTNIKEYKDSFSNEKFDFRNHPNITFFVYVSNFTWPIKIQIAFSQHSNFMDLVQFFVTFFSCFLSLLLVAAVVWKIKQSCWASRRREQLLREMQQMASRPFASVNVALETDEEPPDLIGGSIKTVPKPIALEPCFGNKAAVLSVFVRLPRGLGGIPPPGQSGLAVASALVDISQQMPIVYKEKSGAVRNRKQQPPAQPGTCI
UniProt P14415, whole entry, looked up: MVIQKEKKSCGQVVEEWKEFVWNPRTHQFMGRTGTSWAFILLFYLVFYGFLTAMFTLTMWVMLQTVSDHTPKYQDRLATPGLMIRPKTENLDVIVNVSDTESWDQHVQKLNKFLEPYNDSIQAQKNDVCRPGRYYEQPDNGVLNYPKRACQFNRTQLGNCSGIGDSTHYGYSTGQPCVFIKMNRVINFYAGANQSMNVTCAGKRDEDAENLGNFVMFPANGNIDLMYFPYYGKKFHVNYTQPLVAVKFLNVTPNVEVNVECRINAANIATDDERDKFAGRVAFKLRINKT
UniProt Q13825: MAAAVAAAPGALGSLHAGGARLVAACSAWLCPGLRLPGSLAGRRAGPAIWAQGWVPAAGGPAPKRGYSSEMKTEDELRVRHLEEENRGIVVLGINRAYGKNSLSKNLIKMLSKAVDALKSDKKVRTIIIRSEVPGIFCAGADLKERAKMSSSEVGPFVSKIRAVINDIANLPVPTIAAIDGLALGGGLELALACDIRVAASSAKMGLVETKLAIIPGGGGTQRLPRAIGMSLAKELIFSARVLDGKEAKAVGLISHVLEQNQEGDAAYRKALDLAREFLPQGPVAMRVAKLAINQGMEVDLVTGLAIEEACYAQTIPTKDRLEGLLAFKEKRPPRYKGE

compound: CS(=O)(=O)CCNCc1ccc(-c2ccc3ncnc(Nc4ccc(OCc5cccc(F)c5)c(Cl)c4)c3c2)o1 [lapatinib]; assay: log2 fold change, soluble protein after heating vs DMSO (PISA); higher = thermal stabilisation; K562 lysate, 10 uM; active = over 0.2 and 3.5 SD of the protein, either way, in both replicates (recomputed)
Outline: (§1)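 K562 pellets were dounce-homogenised in PBS pH 7.4 containing 1 mM MgCl2, and the crude extract, at 1 mg/mL protein, was exposed to 10 μM compound for 30 min. Aliquots were heated for 3 min across 48°C-58°C, pooled, brought to 0.5% NP-40 at 4°C and spun at 21,000xg for 90 min, with the supernatant taken as soluble protein. TMTpro 16plex LC-MS/MS with equalised channel sums quantified that protein. Values are log-two fold changes in thermal stability relative to solvent controls, taken from duplicates.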

Question: For AURKA (UniProt O14965), which log2 fold change is on record?
Answer: inactive: -0.101

Question: For ATXN2 (UniProt F8WB05), which log2 fold change is on record?
Answer: inactive: 0.06

Question: ATP6V0A1 (UniProt Q93050) was tested. Which log2 fold change did it give?
Answer: inactive: -0.253

Question: ATP1A1 (UniProt P05023) was tested. Which log2 fold change did it give?
Answer: inactive: 0.012

Question: Which log2 fold change does the source give for ATP11C (UniProt Q8NB49) here?
Answer: inactive: -0.027

Question: ATP6V0C (UniProt P27449) was tested. Which log2 fold change did it give?
Answer: inactive: -0.098

Question: For ATAD3B (UniProt Q5T9A4), which log2 fold change is on record?
Answer: inactive: 0.003

Question: ATE1 (UniProt O95260) was tested. Which log2 fold change did it give?
Answer: inactive: -0.03

Question: How did the log2 fold change turn out when ATP6V1A (UniProt P38606) was run?
Answer: inactive: -0.019

Question: With ATP6AP1 (UniProt Q15904) as the target, how does the log2 fold change read?
Answer: inactive: -0.044

compound: CS(=O)(=O)N1CCN(Cc2cc3nc(-c4cccc5[nH]ncc45)nc(N4CCOCC4)c3s2)CC1 [pictilisib]; assay: as above
Outline: as §1

Question: For ATP5F1B (UniProt H0YI37), which log2 fold change is on record?
Answer: inactive: 0.089

Question: For AVL9 (UniProt Q8NBF6), which log2 fold change is on record?
Answer: inactive: -0.023

Question: How did the log2 fold change turn out when ATF7IP2 (UniProt Q5U623) was run?
Answer: inactive: 0.05

Question: How did the log2 fold change turn out when ATP5ME (UniProt P56385) was run?
Answer: inactive: 0.021

Question: How did the log2 fold change turn out when ATP11C, A0A067XG54 was run?
Answer: inactive: -0.032

Question: ATP5MPL (UniProt P56378) was tested. Which log2 fold change did it give?
Answer: inactive: 0.047

Question: For ATG2A (UniProt Q2TAZ0), which log2 fold change is on record?
Answer: inactive: 0.175

Question: How did the log2 fold change turn out when ATP5PF isoform 2 (UniProt P18859) was run?
Answer: inactive: -0.088

Question: With ATM (UniProt Q13315) as the target, how does the log2 fold change read?
Answer: inactive: -0.055

Question: With ATP13A1 (UniProt Q9HD20) as the target, how does the log2 fold change read?
Answer: inactive: -0.011

Question: Which log2 fold change does the source give for ATP5F1B (UniProt F8W079) here?
Answer: inactive: -0.282

Question: For B3GNT5 (UniProt Q9BYG0), which log2 fold change is on record?
Answer: inactive: -0.295

Question: With ATRN (UniProt O75882) as the target, how does the log2 fold change read?
Answer: inactive: -0.151

Question: How did the log2 fold change turn out when B3GNTL1 (UniProt Q67FW5) was run?
Answer: inactive: 0.05

Question: Which log2 fold change does the source give for ATP1B1 (UniProt P05026) here?
Answer: inactive: 0.025

Question: For ATP1B2 (UniProt P14415), which log2 fold change is on record?
Answer: inactive: -0.069

Question: ATXN7L3 isoform 2 (UniProt Q14CW9) was tested. Which log2 fold change did it give?
Answer: inactive: -0.355

Question: With AUH (UniProt Q13825) as the target, how does the log2 fold change read?
Answer: inactive: -0.131

Question: With NA (UniProt B2RBV5) as the target, how does the log2 fold change read?
Answer: inactive: 0

Question: Which log2 fold change does the source give for ATG16L1 (UniProt Q676U5) here?
Answer: inactive: -0.018

Question: ATE1 isoform 2 (UniProt O95260) was tested. Which log2 fold change did it give?
Answer: inactive: -0.058

Question: Which log2 fold change does the source give for ASXL2 (UniProt Q76L83) here?
Answer: inactive: -0.1

Question: How did the log2 fold change turn out when AURKA (UniProt O14965) was run?
Answer: inactive: 0.112

Question: Which log2 fold change does the source give for ATXN2 (UniProt F8WB05) here?
Answer: inactive: 0.005

Question: Which log2 fold change does the source give for ATP6V0A1 (UniProt Q93050) here?
Answer: inactive: 0.139

Question: ATP1A1 (UniProt P05023) was tested. Which log2 fold change did it give?
Answer: inactive: 0.013

Question: For ATP11C (UniProt Q8NB49), which log2 fold change is on record?
Answer: inactive: 0.007

Question: ATP6V0C (UniProt P27449) was tested. Which log2 fold change did it give?
Answer: inactive: 0.091

Question: ATAD3B (UniProt Q5T9A4) was tested. Which log2 fold change did it give?
Answer: inactive: -0.035

Question: ATE1 (UniProt O95260) was tested. Which log2 fold change did it give?
Answer: inactive: -0.047

Question: ATP6V1A (UniProt P38606) was tested. Which log2 fold change did it give?
Answer: inactive: 0.016

Question: How did the log2 fold change turn out when ATP6AP1 (UniProt Q15904) was run?
Answer: inactive: -0.042

compound: C[C@@H](Oc1cc(-c2cnn(C3CCNCC3)c2)cnc1N)c1c(Cl)ccc(F)c1Cl [crizotinib]; assay: as above
Outline: as §1

Question: ATP5F1B (UniProt H0YI37) was tested. Which log2 fold change did it give?
Answer: inactive: -0.763

Question: Which log2 fold change does the source give for AVL9 (UniProt Q8NBF6) here?
Answer: inactive: -0.026

Question: For ATF7IP2 (UniProt Q5U623), which log2 fold change is on record?
Answer: inactive: -0.215

Question: ATP5ME (UniProt P56385) was tested. Which log2 fold change did it give?
Answer: inactive: 0.015

Question: For ATP11C, A0A067XG54, which log2 fold change is on record?
Answer: inactive: 0.129

Question: With ATP5MPL (UniProt P56378) as the target, how does the log2 fold change read?
Answer: inactive: -0.026

Question: How did the log2 fold change turn out when ATP5PF isoform 2 (UniProt P18859) was run?
Answer: inactive: 0.054

Question: ATM (UniProt Q13315) was tested. Which log2 fold change did it give?
Answer: inactive: -0.045

Question: With ATP13A1 (UniProt Q9HD20) as the target, how does the log2 fold change read?
Answer: inactive: 0.123

Question: Which log2 fold change does the source give for ATRN (UniProt O75882) here?
Answer: inactive: 0.042

Question: For B3GNTL1 (UniProt Q67FW5), which log2 fold change is on record?
Answer: inactive: -0.047

Question: For ATP1B1 (UniProt P05026), which log2 fold change is on record?
Answer: inactive: 0.024

Question: For B4GALNT1 (UniProt Q00973), which log2 fold change is on record?
Answer: inactive: -0.029

Question: ATXN7L3 isoform 2 (UniProt Q14CW9) was tested. Which log2 fold change did it give?
Answer: inactive: -0.075

Question: How did the log2 fold change turn out when AUH (UniProt Q13825) was run?
Answer: inactive: 0.012

Question: With NA (UniProt B2RBV5) as the target, how does the log2 fold change read?
Answer: inactive: 0.017

Question: ATG16L1 (UniProt Q676U5) was tested. Which log2 fold change did it give?
Answer: inactive: 0.078

Question: Which log2 fold change does the source give for ATE1 isoform 2 (UniProt O95260) here?
Answer: inactive: 0.024

Question: Which log2 fold change does the source give for ASXL2 (UniProt Q76L83) here?
Answer: inactive: -0.038

Question: How did the log2 fold change turn out when ATXN2 (UniProt F8WB05) was run?
Answer: inactive: -0.023

Question: ATP6V0A1 (UniProt Q93050) was tested. Which log2 fold change did it give?
Answer: inactive: -0.04

Question: Which log2 fold change does the source give for ATP1A1 (UniProt P05023) here?
Answer: inactive: 0.015

Question: For ATP11C (UniProt Q8NB49), which log2 fold change is on record?
Answer: inactive: 0.004

Question: With ATP6V0C (UniProt P27449) as the target, how does the log2 fold change read?
Answer: inactive: -0.01

Question: With ATAD3B (UniProt Q5T9A4) as the target, how does the log2 fold change read?
Answer: inactive: -0.091

Question: ATE1 (UniProt O95260) was tested. Which log2 fold change did it give?
Answer: inactive: -0.068

Question: How did the log2 fold change turn out when ATP6V1A (UniProt P38606) was run?
Answer: inactive: 0.032

Question: With ATP6AP1 (UniProt Q15904) as the target, how does the log2 fold change read?
Answer: inactive: 0.051
